Patent EP1073451B1, “D[…] TREATING ISCHEMIA” (University of Kentucky Research Foundation, priority 1998, dated 2002)

Tested on: focal middle cerebral arterial occlusion (MCAO) ischemia
Conditions: laser-Doppler flowmetry; for time for cerebral blood flow to return to baseline levels after cessation of ischemia: 4 mg/kg i.p. x4 prior to 1 h MCAO; for reduction in cerebral blood flow: upon induction of ischemia by MCAO, sustained for 1 h, same in control animals

Compound	time for cerebral blood flow to return to baseline levels after cessation of ischemia	reduction in cerebral blood flow
CC(C)C[C@@H](NC(=O)[C@H](Cc1ccccc1)NC(=O)CNC(=O)[C@@H](C)NC(=O)[C@@H](N)Cc1ccc(O)cc1)C(=O)O [DADLE, Tyr-D-Ala-Gly-Phe-D-Leu-enkephalin]	≤ 0.5 h	20%
Tyr-Ala-Phe-Asp-Val-Val-Gly-NH2 [deltorphin]	≤ 0.5 h	25%
